Measurements reported in article doi:10.1101/2021.07.08.451585.

Protein sequences, listed by entry. Tags and fused reporters are not part of them.
UniProt Q96R06: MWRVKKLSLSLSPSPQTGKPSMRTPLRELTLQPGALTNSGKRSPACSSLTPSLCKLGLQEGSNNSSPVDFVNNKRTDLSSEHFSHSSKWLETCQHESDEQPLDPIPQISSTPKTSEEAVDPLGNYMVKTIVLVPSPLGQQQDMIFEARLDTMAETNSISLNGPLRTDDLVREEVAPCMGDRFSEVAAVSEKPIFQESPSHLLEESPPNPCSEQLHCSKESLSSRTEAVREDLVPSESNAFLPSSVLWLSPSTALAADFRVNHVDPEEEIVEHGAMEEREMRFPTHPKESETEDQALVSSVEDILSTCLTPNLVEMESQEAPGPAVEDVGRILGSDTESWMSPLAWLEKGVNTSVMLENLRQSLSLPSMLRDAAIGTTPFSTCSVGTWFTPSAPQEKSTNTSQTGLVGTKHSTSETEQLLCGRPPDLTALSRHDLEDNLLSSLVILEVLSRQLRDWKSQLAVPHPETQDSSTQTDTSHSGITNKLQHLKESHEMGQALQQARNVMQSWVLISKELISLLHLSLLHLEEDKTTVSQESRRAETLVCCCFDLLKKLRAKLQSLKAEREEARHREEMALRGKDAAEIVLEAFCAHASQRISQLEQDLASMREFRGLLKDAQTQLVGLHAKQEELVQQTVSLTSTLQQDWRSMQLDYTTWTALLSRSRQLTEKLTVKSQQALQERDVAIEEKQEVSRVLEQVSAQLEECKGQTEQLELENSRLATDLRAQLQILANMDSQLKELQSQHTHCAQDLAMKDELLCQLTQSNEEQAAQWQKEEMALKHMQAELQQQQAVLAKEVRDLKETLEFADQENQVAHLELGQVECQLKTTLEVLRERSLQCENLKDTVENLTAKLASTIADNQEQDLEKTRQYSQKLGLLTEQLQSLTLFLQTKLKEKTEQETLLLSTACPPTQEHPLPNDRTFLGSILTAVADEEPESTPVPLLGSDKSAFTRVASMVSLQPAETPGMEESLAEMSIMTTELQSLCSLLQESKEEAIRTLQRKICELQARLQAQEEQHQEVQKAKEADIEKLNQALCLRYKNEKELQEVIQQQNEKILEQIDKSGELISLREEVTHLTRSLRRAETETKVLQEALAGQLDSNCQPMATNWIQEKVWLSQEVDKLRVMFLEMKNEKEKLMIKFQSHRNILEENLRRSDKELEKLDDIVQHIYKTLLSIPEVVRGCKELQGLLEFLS

Experiments:
[1] = biological target: T1, mouse CLUH (mCLUH) protein tagged with a triple HA epitope (3xHA) (mouse) (UniProt Q5SW19); experiment: affinity purification with mass spectrometry
T1 sequence: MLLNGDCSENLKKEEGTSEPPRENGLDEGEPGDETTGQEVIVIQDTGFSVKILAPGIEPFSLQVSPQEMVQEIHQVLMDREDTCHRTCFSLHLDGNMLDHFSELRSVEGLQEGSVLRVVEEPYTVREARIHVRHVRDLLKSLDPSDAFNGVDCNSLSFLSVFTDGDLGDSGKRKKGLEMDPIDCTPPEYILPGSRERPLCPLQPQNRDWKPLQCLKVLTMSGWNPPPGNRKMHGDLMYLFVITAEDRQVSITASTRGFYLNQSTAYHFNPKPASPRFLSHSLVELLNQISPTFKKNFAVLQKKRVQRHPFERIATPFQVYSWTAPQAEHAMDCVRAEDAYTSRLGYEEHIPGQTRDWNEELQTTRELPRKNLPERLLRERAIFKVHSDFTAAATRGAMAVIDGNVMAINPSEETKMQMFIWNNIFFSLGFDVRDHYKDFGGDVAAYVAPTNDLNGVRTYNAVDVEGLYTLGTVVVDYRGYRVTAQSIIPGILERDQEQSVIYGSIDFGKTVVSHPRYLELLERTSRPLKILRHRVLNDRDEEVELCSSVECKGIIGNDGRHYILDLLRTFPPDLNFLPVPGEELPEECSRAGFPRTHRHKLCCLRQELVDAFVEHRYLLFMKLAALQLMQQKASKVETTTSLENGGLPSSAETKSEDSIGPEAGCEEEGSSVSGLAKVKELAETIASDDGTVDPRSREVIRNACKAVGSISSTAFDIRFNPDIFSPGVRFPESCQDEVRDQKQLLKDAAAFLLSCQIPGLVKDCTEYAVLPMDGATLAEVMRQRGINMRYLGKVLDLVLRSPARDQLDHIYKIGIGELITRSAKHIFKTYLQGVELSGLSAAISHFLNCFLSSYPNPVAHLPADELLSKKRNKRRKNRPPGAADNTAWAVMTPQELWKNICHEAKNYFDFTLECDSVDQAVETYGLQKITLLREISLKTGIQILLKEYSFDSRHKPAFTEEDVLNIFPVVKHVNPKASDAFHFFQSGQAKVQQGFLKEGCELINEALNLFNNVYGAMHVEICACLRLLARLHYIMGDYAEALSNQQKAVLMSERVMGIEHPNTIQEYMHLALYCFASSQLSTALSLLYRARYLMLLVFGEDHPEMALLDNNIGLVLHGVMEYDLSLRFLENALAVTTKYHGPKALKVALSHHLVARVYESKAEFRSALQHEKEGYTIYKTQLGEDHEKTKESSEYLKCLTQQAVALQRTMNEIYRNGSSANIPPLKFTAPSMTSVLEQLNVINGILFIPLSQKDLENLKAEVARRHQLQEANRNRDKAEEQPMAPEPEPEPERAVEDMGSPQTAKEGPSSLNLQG

[2] = biological target: T2, human CLUH fused to TurboID in N-terminal (TurboID-CLUH) (human) (UniProt O75153); experiment: proximity labelling
T2 sequence: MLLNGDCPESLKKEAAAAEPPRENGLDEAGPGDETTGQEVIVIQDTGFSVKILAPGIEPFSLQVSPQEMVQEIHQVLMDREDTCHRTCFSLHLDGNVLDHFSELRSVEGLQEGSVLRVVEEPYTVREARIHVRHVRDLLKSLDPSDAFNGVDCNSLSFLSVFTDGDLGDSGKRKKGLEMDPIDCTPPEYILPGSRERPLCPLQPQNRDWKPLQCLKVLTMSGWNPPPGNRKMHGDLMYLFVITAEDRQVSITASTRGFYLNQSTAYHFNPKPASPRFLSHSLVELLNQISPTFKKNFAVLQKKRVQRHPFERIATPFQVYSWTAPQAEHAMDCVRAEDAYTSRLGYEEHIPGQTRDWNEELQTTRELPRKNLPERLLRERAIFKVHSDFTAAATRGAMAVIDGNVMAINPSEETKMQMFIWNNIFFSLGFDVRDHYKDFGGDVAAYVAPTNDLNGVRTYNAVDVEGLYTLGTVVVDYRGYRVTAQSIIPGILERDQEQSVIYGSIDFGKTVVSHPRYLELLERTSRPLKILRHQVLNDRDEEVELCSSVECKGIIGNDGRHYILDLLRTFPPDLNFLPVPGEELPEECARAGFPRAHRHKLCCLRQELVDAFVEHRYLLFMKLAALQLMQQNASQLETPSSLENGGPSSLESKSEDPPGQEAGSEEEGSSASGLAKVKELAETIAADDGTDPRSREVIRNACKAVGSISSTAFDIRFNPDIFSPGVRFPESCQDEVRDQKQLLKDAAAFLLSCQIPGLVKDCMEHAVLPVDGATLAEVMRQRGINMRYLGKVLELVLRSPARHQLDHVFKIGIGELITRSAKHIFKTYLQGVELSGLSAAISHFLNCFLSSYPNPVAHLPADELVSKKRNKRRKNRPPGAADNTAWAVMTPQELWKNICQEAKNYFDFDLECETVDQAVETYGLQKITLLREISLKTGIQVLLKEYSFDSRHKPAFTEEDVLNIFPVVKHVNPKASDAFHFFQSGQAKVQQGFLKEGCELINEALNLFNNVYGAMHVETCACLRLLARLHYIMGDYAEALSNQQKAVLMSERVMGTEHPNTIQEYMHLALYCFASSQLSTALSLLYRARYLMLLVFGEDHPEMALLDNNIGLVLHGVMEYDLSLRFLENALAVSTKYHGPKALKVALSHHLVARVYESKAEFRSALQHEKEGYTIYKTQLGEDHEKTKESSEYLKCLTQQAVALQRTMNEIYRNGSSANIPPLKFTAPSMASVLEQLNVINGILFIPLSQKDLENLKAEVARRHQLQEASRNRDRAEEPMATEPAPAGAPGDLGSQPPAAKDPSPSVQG

[3] = biological target: T3, BioID2-tagged wildtype human CLUH (BioID2-3xHA-CLUH) (human) (UniProt O75153); experiment: proximity labelling
T3 sequence: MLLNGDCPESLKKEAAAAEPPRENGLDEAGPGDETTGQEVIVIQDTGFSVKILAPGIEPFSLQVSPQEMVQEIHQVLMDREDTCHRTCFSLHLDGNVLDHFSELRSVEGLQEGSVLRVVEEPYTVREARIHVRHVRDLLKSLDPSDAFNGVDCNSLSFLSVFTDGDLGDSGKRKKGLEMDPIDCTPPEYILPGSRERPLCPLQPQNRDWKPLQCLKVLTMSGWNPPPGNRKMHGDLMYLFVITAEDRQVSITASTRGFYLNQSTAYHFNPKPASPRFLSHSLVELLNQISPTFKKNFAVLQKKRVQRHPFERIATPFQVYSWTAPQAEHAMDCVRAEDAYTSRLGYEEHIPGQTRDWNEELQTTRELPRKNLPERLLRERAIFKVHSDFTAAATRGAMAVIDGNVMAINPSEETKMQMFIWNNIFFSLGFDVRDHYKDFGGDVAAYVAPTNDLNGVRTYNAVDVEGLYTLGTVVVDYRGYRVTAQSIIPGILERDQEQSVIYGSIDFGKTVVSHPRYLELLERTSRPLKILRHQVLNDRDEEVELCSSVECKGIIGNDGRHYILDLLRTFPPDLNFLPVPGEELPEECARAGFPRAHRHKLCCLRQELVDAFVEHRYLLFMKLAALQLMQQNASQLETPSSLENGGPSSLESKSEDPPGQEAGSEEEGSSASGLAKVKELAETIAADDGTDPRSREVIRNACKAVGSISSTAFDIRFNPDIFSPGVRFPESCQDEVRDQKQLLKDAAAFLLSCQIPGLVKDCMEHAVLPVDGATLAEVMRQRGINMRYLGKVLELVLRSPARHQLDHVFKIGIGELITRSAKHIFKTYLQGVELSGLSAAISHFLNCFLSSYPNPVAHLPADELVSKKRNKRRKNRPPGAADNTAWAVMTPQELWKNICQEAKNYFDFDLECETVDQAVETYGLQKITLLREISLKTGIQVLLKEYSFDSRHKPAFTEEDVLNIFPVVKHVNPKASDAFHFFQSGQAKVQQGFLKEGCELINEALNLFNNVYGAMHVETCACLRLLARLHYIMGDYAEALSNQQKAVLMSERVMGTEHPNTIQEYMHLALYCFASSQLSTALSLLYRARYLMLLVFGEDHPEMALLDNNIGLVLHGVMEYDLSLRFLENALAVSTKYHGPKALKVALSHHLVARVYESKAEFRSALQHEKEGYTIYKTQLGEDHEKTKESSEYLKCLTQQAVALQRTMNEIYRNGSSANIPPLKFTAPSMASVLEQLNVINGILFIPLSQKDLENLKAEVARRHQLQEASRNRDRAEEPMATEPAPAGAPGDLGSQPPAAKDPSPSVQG

[4] = biological target: T4, mouse CLUH (mCLUH) protein fused, in N-terminal, to a modified biotin ligase protein (BioID2-CLUH) (mouse) (UniProt Q5SW19); experiment: proximity labelling
T4 sequence: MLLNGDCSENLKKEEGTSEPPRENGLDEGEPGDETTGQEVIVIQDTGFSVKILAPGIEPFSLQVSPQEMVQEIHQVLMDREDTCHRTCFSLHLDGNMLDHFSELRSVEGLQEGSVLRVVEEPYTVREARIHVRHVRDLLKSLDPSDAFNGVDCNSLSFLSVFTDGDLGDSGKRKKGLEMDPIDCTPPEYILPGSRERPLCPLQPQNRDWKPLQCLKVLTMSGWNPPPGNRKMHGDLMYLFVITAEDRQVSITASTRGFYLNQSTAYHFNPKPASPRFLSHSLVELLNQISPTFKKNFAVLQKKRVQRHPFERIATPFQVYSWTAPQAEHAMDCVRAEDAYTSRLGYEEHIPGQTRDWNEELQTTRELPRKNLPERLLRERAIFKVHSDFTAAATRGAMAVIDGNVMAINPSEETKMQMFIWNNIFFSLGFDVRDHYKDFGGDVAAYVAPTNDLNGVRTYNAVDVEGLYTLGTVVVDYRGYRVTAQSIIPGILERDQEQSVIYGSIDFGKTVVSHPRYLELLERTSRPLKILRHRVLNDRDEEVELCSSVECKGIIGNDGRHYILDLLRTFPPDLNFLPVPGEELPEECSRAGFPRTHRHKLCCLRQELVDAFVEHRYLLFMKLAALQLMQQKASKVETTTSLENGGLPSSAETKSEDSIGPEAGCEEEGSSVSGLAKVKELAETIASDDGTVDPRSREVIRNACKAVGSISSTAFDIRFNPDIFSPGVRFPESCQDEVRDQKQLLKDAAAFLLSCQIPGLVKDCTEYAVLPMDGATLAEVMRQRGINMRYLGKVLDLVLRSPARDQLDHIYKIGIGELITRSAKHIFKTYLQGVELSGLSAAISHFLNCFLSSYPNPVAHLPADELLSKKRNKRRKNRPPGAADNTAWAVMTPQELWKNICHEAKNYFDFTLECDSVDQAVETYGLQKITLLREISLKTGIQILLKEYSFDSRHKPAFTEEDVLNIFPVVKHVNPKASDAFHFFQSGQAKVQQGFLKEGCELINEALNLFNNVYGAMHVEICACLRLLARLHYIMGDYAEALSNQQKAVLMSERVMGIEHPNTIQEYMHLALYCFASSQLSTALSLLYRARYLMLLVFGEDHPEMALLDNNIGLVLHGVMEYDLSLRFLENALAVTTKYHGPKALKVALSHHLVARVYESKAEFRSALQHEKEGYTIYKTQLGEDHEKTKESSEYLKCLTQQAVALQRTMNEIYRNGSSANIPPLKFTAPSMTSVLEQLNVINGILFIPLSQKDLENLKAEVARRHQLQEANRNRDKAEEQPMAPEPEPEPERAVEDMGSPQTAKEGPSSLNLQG

Measured: binding

SPAG5, endogenous in HCT116 cells (from UniProt Q96R06 1-1193)
binds: all assays above

B1: KNSTRN, endogenous in HCT116 cells (protein, UniProt Q9Y448 1-316)
chain: MAAPEAPPLDRVFRTTWLSTECDSHPLPPSYRKFLFETQAADLAGGTTVAAGNLLNESEKDCGQDRRAPGVQPCRLVTMTSVVKTVYSLQPPSALSGGQPADTQTRATSKSLLPVRSKEVDVSKQLHSGGPENDVTKITKLRRENGQMKATDTATRRNVRKGYKPLSKQKSEEELKDKNQLLEAVNKQLHQKLTETQGELKDLTQKVELLEKFRDNCLAILESKGLDPALGSETLASRQESTTDHMDSMLLLETLQEELKLFNETAKKQMEELQALKVKLEMKEERVRFLEQQTLCNNQVNDLTTALKEMEQLLEM
binds: [1] | [2] | [4]

Results are given in words; binding and its absence hold for the method and conditions named. Binding seen in cells or lysates may run through a third protein. These calls come from enrichment with a bait or labelling near it, and not all partners need be listed. Where a sequence is shown, tags or fusion partners need not be part of it.
